From US20030022317
For at least one entry, the source does not settle the construct or the ends of the probe.

Test system: N.BstNBI nicking endonuclease
Test: enzyme reaction in vitro
Conditions: purified native protein
[1] = site within plasmid pECV1, three fragments released after nicking and heating to 65 C

| Sequence | activity on this sequence [1] | also measured |
| --- | --- | --- |
| GAGTCCGATTGACCTAAGCGGATACTCTGACGACTC (double strand) [N2 18-nt cohesive-end cassette (paired N.BstNBI sites)] |  | activity on this sequence (site within plasmids pAZY2 and pECH1, fragments released after nicking and heating): active |
| GAGTCCGATATTTACGGGCCACGTAGACTC (double strand) [M2 12-nt cohesive-end cassette (paired N.BstNBI sites)] | active |  |
| GAGTCAGCTCAATGTTGCCAGTCAGGACTC (double strand) [M1 12-nt cohesive-end cassette (paired N.BstNBI sites)] | active |  |
| GAGTCTGACATCGAGCGCCTAGCATTAGTCAGACTC (double strand) [N1 18-nt cohesive-end cassette (paired N.BstNBI sites)] |  | activity on this sequence (site within plasmids pAZY2, pECF11, pECH1, fragments released after nicking and heating to 65-75 C): active |
| GAGTCTCAGCCTGTTAGCGATGGTACATGACGACTC (double strand) [N3 18-nt cohesive-end cassette (paired N.BstNBI sites)] |  | activity on this sequence (site within plasmids pECF11 and pECH1, fragments released after nicking and heating to 65 C): active |
| GAGTCTCAGACTATCTGGAGCGACTGACTC (double strand) [M3 12-nt cohesive-end cassette (paired N.BstNBI sites)] | active |  |
